Data source: PubChem BioAssay AID720505 (Drosophila RNAi Screening Center, 2013)

Assay: 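Genes needed for store-operated calcium entry in fly cells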 (primary screen)
Cells: Drosophila S2R+ cells
Knock-down reagent: long dsRNA against Drosophila genes
Treatment: thapsigargin (2 µM) in calcium-free buffer to empty internal stores, then 2 mM calcium added back
Measured: 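Stores emptied by 2 µM thapsigargin without calcium, then 2 mM calcium re-added; fluo-4 fluorescence followed by FLIPR in 384-well plates, per-well averaged endpoint, raw; two screen passes, some wells retested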
Direction: calcium signal and retest calcium signal: higher = more calcium entry after store depletion
Rule for the call: 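Knock-downs counted as hits when calcium entry dropped relative to STIM1 positive and Rho1 negative controls present on each plate; roughly 1500 genes called, with reductions of differing size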
Meaning of the calls: active = called as lowering calcium entry; inactive = not called
In all, the deposit lists about 20,000 reagents; this is a random part of those with a known target gene and a result. Of all reagents, about 2,100 (10%) are marked active. 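Raw plate signals without normalisation; calls rest on control-based scores that were not deposited; replicate 2 separates called from uncalled poorly.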 Reagents against one gene are numbered here. Names joined by + are all predicted targets of the reagent. Not stated in the record: the amount of reagent, the time to read-out.

gene | reagent | calcium signal, replicate 1 | calcium signal, replicate 2 | retest calcium signal, replicate 1 | retest calcium signal, replicate 2 | activity call
Crk | 1 | 138 | 120 | – | – | inactive
fwe | 1 | – | – | – | – | inactive
fwe | 2 | 149 | 121 | – | – | inactive
fwe | 3 | 248 | 93.5 | – | – | inactive
wde | 1 | 152 | 110 | – | – | inactive
CG8188 | 1 | 63.6 | 107 | 123 | 112 | active
CG34458 | 1 | 158 | 208 | – | – | inactive
PDZ-GEF | 1 | 63.4 | 193 | – | – | active
Rab18 | 1 | 65.3 | 82.6 | – | – | active
CG14370 | 1 | 121 | 185 | – | – | inactive
CG42715 (retired record) | 1 | 98.2 | 84 | – | – | inactive
Ncoa6 | 1 | 98.6 | 166 | – | – | inactive
Ncoa6 | 2 | 78.1 | 160 | – | – | inactive
CG1572 | 1 | 114 | 98 | – | – | inactive
hbs | 1 | 120 | 208 | – | – | inactive
CG2147 | 1 | 161 | 94.8 | – | – | inactive
CG42288 | 1 | 125 | 227 | – | – | inactive
CG11997 | 1 | 109 | 152 | – | – | inactive
Set2 | 1 | 141 | 133 | – | – | inactive
lft | 1 | 179 | 138 | – | – | inactive
Lcp65Ab2 + Lcp65Ab1 | 1 | 127 | 117 | – | – | inactive
Lcp65Ab2 + Lcp65Ab1 | 2 | 131 | 99.5 | – | – | inactive
CG14111 | 1 | 100 | 112 | – | – | inactive
CG40439 | 1 | 90.3 | 172 | – | – | inactive
Snm1 | 1 | 106 | 128 | – | – | inactive
Ugt37C1 | 1 | 89 | 93.2 | – | – | inactive
ics | 1 | 100 | 80.3 | – | – | inactive
CG4554 | 1 | 176 | 139 | 80.4 | 95.2 | inactive
Pgant7 | 1 | 155 | 120 | – | – | inactive
CG15753 (retired record) | 1 | 80.4 | 157 | 86.6 | 98 | inactive
CG15753 (retired record) | 2 | 116 | 136 | – | – | inactive
CG15753 (retired record) | 3 | 129 | 98.7 | – | – | inactive
CG15753 (retired record) | 4 | 54 | 127 | – | – | active
CG15753 (retired record) | 5 | 66.3 | 88.6 | – | – | active
CG15753 (retired record) | 6 | 103 | 105 | – | – | inactive
Alms1b + Alms1a | 1 | 111 | 130 | – | – | inactive
CG2528 | 1 | 127 | 115 | – | – | inactive

In a second layout: entries from further up.
gene,reagent,"calcium signal, replicate 1","calcium signal, replicate 2","retest calcium signal, replicate 1","retest calcium signal, replicate 2",activity call
CG40439,1,90.3,172,,,inactive
Snm1,1,106,128,,,inactive
Ugt37C1,1,89,93.2,,,inactive
ics,1,100,80.3,,,inactive
CG4554,1,176,139,80.4,95.2,inactive
Pgant7,1,155,120,,,inactive
CG15753 (retired record),1,80.4,157,86.6,98,inactive
CG15753 (retired record),2,116,136,,,inactive
CG15753 (retired record),3,129,98.7,,,inactive
CG15753 (retired record),4,54,127,,,active
CG15753 (retired record),5,66.3,88.6,,,active
CG15753 (retired record),6,103,105,,,inactive
Alms1b + Alms1a,1,111,130,,,inactive

More reagents follow:
gene | reagent | calcium signal, replicate 1 | calcium signal, replicate 2 | retest calcium signal, replicate 1 | retest calcium signal, replicate 2 | activity call
gnu | 1 | 99.5 | 140 | – | – | inactive
Nup37 | 1 | 252 | 146 | – | – | inactive
CG7049 | 1 | 193 | 97.1 | – | – | inactive
CG6686 | 1 | 88.8 | 83.7 | – | – | inactive
CG12541 | 1 | – | – | – | – | active
CG12541 | 2 | 258 | 102 | – | – | inactive
CG6454 | 1 | 206 | 213 | – | – | inactive
NetB | 1 | 106 | 94.3 | – | – | inactive
CG34334 | 1 | 160 | 102 | – | – | inactive
yip7 | 1 | 60.2 | 60.8 | – | – | inactive
Tmtc2 | 1 | 149 | 233 | – | – | inactive
UBL3 | 1 | 126 | 141 | – | – | inactive
UBL3 | 2 | 175 | 147 | – | – | inactive
Cks85A | 1 | 117 | 156 | – | – | inactive
CG31103 | 1 | 109 | 200 | – | – | inactive
Sac1 | 1 | 154 | 111 | – | – | inactive
CG12194 | 1 | 173 | 117 | – | – | inactive
spirit | 1 | 124 | 94.6 | – | – | inactive
Sox14 | 1 | 188 | 226 | – | – | inactive
CG13843 | 1 | 93.5 | 83.6 | – | – | inactive
Mmp2 | 1 | 105 | 134 | – | – | inactive
Mmp2 | 2 | 66.3 | 217 | – | – | inactive
CG14130 | 1 | 57.7 | 55.8 | – | – | active
CG7330 | 1 | 95.1 | 129 | – | – | inactive
CG7330 | 2 | 88.6 | 128 | – | – | inactive
Klp31E | 1 | 132 | 122 | – | – | inactive
CG8490 | 1 | 145 | 123 | – | – | inactive
Orc2 | 1 | 85.9 | 113 | – | – | inactive
Oscillin | 1 | 138 | 165 | 92 | 105 | inactive
CG11523 | 1 | 150 | 110 | – | – | inactive
Ccp84Aa | 1 | 91.9 | 176 | – | – | inactive
Kif19A | 1 | 82.3 | 148 | – | – | inactive
Dph4 | 1 | 177 | 177 | – | – | inactive
CG7220 | 1 | 107 | 121 | – | – | inactive
CG7220 | 2 | 124 | 165 | – | – | inactive
CG15544 | 1 | 170 | 163 | – | – | inactive
CG14966 | 1 | 90.6 | 126 | – | – | inactive
CG17475 | 1 | 128 | 208 | – | – | inactive
hts | 1 | 125 | 96.7 | – | – | inactive
CG14760 | 1 | 155 | 150 | – | – | inactive
Grik | 1 | 159 | 233 | – | – | inactive
Grik | 2 | 197 | 141 | – | – | inactive
Irbp | 1 | 105 | 110 | – | – | inactive
Irbp | 2 | 95 | 152 | – | – | inactive
Der-1 | 1 | 135 | 261 | – | – | inactive
CG18539 | 1 | 231 | 194 | – | – | inactive
